The results in this text go back to publication PMC7015052, “Transferrin plays a central role in coagulation balance by interacting with clotting factors” (Cell Research, 2019).

Protein sequences, listed by entry. Tags and fused reporters are not part of them. Lines headed by an entry give the natural chain unless they say otherwise; changes in a name come on top. Chains listed by the source or under a name are the forms on record and can include a tag or linker. Residues count along the entry.
UniProt P02768, residues 25-609: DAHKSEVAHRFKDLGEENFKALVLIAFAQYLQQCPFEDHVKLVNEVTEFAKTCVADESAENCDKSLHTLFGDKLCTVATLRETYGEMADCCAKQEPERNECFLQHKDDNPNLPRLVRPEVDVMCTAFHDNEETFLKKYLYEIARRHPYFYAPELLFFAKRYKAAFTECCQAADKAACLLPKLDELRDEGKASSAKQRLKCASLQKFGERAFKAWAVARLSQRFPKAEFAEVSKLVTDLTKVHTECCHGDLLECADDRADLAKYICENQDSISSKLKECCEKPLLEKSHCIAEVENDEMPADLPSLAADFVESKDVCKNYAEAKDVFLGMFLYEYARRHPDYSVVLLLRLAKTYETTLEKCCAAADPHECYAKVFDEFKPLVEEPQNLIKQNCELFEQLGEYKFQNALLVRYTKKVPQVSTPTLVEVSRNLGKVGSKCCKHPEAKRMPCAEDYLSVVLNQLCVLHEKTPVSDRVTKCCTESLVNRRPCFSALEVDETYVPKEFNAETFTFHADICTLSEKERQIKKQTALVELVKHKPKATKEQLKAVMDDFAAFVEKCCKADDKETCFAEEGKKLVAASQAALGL
apo-transferrin (P02787, residues 20-698): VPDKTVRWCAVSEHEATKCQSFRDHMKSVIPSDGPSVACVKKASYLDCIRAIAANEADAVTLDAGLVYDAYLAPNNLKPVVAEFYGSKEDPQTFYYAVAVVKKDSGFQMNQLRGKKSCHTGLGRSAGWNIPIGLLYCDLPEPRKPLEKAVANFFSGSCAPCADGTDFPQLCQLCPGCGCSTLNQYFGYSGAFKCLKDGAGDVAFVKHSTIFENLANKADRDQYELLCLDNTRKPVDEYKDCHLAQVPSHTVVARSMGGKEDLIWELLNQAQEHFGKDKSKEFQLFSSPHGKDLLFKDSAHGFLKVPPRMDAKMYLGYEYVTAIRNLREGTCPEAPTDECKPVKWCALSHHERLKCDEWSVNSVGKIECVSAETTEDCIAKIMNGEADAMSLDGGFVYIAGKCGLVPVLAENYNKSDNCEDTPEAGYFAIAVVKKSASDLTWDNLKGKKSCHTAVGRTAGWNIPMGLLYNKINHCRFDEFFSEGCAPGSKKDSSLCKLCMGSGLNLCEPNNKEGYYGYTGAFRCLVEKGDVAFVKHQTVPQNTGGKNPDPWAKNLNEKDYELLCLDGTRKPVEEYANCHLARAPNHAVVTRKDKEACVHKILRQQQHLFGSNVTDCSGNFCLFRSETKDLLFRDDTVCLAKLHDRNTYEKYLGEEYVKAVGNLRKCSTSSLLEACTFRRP
transferrin mutant (E333,338R) (P02787, form named): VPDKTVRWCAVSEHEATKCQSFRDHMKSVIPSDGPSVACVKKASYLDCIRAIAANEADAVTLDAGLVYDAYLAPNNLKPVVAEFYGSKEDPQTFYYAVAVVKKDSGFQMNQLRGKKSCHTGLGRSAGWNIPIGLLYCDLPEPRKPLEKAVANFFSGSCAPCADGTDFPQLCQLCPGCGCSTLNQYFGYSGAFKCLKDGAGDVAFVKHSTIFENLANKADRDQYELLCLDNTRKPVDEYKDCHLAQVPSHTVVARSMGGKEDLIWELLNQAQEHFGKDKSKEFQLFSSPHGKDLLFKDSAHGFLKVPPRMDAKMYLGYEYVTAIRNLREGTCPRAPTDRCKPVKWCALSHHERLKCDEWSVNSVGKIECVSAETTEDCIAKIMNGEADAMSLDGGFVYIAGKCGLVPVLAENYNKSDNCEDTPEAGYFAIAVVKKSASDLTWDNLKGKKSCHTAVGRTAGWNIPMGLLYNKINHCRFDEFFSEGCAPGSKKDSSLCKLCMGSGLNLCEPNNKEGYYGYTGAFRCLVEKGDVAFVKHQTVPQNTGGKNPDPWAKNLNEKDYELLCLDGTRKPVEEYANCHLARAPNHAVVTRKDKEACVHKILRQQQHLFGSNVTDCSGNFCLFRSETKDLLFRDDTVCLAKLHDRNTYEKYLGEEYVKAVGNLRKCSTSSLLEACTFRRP
UniProt P01008, residues 33-464: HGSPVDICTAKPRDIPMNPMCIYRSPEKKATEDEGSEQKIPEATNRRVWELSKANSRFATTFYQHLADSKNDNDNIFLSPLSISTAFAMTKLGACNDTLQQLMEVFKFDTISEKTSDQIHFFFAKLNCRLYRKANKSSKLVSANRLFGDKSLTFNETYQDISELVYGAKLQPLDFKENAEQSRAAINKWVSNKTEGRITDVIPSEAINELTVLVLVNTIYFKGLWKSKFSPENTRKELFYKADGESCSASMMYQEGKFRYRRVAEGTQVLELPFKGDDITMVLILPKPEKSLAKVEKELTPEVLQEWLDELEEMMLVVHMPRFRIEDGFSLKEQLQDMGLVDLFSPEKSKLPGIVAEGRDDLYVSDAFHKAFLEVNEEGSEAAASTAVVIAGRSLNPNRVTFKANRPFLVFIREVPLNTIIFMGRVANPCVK

These are yes or no findings as the source states them, for the method shown. Some entries that bind do so weakly or less than the wild type.

For assay [1], the target named is human serum albumin (human) (UniProt P02768). Description: SPR; BIAcore 2000; HSA as negative control in place of transferrin; both purified.
The target of assay [2] is apo-transferrin (human) (UniProt P02787). The assay can be described thus: SPR; transferrin with synthetic peptides (TH16, FX18, RCL19 and their scrambled controls); both purified. For orientation: In SPR one partner is held on a chip, and binding of the other changes the refractive index at the surface.
Assay [3] addresses transferrin mutant (E333,338R) (human) (UniProt P02787). Description: SPR; wild-type or mutant transferrin with thrombin or FXIIa, and transferrin with wild-type or mutant thrombin; both purified.

With “antithrombin (from UniProt P01008 33-464)”, the binding entry in assay [1] was “no binding”.

B1: FX18-scr (peptide)
peptide: SCPTHYSRQRCRNAVLER
As to B1, the binding entry in assay [2] is reported as “no binding”.

B2: TH16-scr (peptide)
peptide: RKKGIRRYTERHSNIE
As to B2, in assay [2], the binding result was “no binding”.

B3: RCL19-scr (peptide)
peptide: GANPRELNSAATIASVARV
As for B3, the binding entry in assay [2] is recorded as “no binding”.

B4: human α-FXIIa (enzyme)
chain 1: IPPWEAPKEHKYKAEEHTVVLTVTGEPCHFPFQYHRQLYHKCTHKGRPGPQPWCATTPNFDQDQRWGYCLEPKKVKDHCSKHSPCQKGGTCVNMPSGPHCLCPQHLTGNHCQKEKCFEPQLLRFFHKNEIWYRTEQAAVARCQCKGPDAHCQRLASQACRTNPCLHGGRCLEVEGHRLCHCPVGYTGAFCDVDTKASCYDGRGLSYRGLARTTLSGAPCQPWASEATYRNVTAEQARNWGLGGHAFCRNPDNDIRPWCFVLNRDRLSWEYCDLAQCQTPTQAAPPTPVSPRLHVPLMPAQPAPPKPQPTTRTPPQSQTPGALPAKREQPPSLTRNGPLSCGQRLRKSLSSMTR
chain 2: VVGGLVALRGAHPYIAALYWGHSFCAGSLIAPCWVLTAAHCLQDRPAPEDLTVVLGQERRNHSCEPCQTLAVRSYRLHEAFSPVSYQHDLALLRLQEDADGSCALLSPYVQPVCLPSGAARPSETTLCQVAGWGHQFEGAEEYASFLQEAQVPFLSLERCSAPDVHGSSILPGMLCAGFLEGGTDACQGDSGGPLVCEDQAAERRLTLQGIISWGSGCGDRNKPGVYTDVAYYLAWIREHTVS
notes: factor XIIa heavy chain, cut product of human factor XII; factor XIIa light chain (protease domain), cut product of human factor XII; also called factor XIIa; source: bought: Enzyme Research Laboratories (HFXIIa 1212a)
B4: the binding result in assay [3] was “binds weakly”; in assay [1] it was “no binding”.
